No constants are given. Whether binding was seen depends on the method and setting. For part of these data: Binding seen in cells or lysates may run through a third protein. Some entries that bind do so weakly or less than the wild type. Where a sequence is shown, tags or fusion partners need not be part of it.
T1: full-length Drosophila Smurf (two-hybrid bait) (Drosophila) (UniProt Q9V853)
T1 sequence: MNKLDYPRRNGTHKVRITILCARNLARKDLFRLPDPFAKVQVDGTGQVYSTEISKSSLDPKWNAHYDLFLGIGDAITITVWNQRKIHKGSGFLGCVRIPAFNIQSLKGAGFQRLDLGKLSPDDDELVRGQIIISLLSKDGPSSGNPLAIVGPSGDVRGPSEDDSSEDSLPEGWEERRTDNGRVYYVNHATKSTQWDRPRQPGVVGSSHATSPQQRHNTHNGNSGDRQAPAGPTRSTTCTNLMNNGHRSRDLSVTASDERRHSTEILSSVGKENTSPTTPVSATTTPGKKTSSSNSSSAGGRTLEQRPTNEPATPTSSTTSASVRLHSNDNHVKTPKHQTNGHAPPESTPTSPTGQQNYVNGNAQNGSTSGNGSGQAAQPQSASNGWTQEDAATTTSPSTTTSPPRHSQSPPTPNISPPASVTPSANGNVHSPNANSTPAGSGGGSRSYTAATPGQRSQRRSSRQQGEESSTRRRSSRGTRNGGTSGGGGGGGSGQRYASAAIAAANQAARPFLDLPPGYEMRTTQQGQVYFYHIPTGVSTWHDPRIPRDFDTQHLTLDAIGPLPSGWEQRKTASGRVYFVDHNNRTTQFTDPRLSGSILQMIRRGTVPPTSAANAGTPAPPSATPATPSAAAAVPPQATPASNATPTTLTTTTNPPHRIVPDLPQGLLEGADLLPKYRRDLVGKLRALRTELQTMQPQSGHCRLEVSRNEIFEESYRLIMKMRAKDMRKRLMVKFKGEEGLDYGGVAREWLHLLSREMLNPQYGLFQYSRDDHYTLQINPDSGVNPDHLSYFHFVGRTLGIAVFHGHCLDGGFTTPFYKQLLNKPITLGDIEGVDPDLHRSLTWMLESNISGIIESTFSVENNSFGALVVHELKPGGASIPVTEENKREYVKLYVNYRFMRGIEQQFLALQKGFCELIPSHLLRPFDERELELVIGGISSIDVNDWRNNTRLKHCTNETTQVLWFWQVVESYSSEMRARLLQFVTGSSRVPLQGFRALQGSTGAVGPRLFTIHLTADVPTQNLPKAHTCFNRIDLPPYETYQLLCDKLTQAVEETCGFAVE

T2: Flag-tagged Smurf (Drosophila) (UniProt Q9V853)
T2 sequence: T1 sequence

B1: Ptc-L1 (aa 1198-1286), two-hybrid prey clone (domain or fragment, UniProt P18502 1198-1286)
chain: RPASYAAPPPAYHKAAAQQHHQHQGPPTTPPPPFPTAYPPELQSIVVQPEVTVETTHSDSNTTKVTATANIKVELAMPGRAVRSYNFTS
B2: Ptc^CTD (two-hybrid fusion) (domain or fragment, UniProt P18502 1101-1286)
chain: ILLSMVGPEAELVPLEHPDRISTPSPLPVRSSKRSGKSYVVQGSRSSRGSCQKSHHHHHKDLNDPSLTTITEEPQSWKSSNSSIQMPNDWTYQPREQRPASYAAPPPAYHKAAAQQHHQHQGPPTTPPPPFPTAYPPELQSIVVQPEVTVETTHSDSNTTKVTATANIKVELAMPGRAVRSYNFTS
B3: Ptc-B4/5 (aa 1174-1286), two-hybrid prey clone (domain or fragment, UniProt P18502 1174-1286)
chain: PQSWKSSNSSIQMPNDWTYQPREQRPASYAAPPPAYHKAAAQQHHQHQGPPTTPPPPFPTAYPPELQSIVVQPEVTVETTHSDSNTTKVTATANIKVELAMPGRAVRSYNFTS
B4: Smo^ΔN (556-1,036 a.a of Smo) (domain or fragment, UniProt P91682 556-1036)
chain: TPSSIETWKRYIRKKCGKEVVEEVKMPKHKVIAQTWAKRKDFEDKGRLSITLYNTHTDPVGLNFDVNDLNSSETNDISSTWAAYLPQCVKRRMALTGAATGNSSSHGPRKNSLDSEISVSVRHVSVESRRNSVDSQVSVKIAEMKTKVASRSRGKHGGSSSNRRTQRRRDYIAAATGKSSRRRESSTSVESQVIALKKTTYPNASHKVGVFAHHSSKKQHNYTSSMKRRTANAGLDPSILNEFLQKNGDFIFPFLQNQDMSSSSEEDNSRASQKIQDLNVVVKQQEISEDDHDGIKIEELPNSKQVALENFLKNIKKSNESNSNRHSRNSARSQSKKSQKRHLKNPAADLDFRKDCVKYRSNDSLSCSSEELDVALDVGSLLNSSFSGISMGKPHSRNSKTSCDVGIQANPFELVPSYGEDELQQAMRLLNAASRQRTEAANEDFGGTELQGLLGHSHRHQREPTFMSESDKLKMLLLPSK
B5: Ptc^CTD (C-terminal tail of Ptc) expressed in S2 cells (domain or fragment, Drosophila, UniProt P18502 1101-1286, looked up)
chain: B2 chain
notes: Patched (Ptc), Drosophila, C-terminal tail; also called C-tail of Ptc; Ptc C-tail; source: S2 cells, transfected, in lysate
B6: Smoothened (Smo), tagged, in S2 cells (receptor, UniProt P91682 32-1036)
chain: SSAKFGSTTPASAQQSDVELEPINGTLNYRLYAKKGRDDKPWFDGLDSRHIQCVRRARCYPTSNATNTCFGSKLPYELSSLDLTDFHTEKELNDKLNDYYALKHVPKCWAAIQPFLCAVFKPKCEKINGEDMVYLPSYEMCRITMEPCRILYNTTFFPKFLRCNETLFPTKCTNGARGMKFNGTGQCLSPLVPTDTSASYYPGIEGCGVRCKDPLYTDDEHRQIHKLIGWAGSICLLSNLFVVSTFFIDWKNANKYPAVIVFYINLCFLIACVGWLLQFTSGSREDIVCRKDGTLRHSEPTAGENLSCIVIFVLVYYFLTAGMVWFVFLTYAWHWRAMGHVQDRIDKKGSYFHLVAWSLPLVLTITTMAFSEVDGNSIVGICFVGYINHSMRAGLLLGPLCGVILIGGYFITRGMVMLFGLKHFANDIKSTSASNKIHLIIMRMGVCALLTLVFILVAIACHVTEFRHADEWAQSFRQFIICKISSVFEEKSSCRIENRPSVGVLQLHLLCLFSSGIVMSTWCWTPSSIETWKRYIRKKCGKEVVEEVKMPKHKVIAQTWAKRKDFEDKGRLSITLYNTHTDPVGLNFDVNDLNSSETNDISSTWAAYLPQCVKRRMALTGAATGNSSSHGPRKNSLDSEISVSVRHVSVESRRNSVDSQVSVKIAEMKTKVASRSRGKHGGSSSNRRTQRRRDYIAAATGKSSRRRESSTSVESQVIALKKTTYPNASHKVGVFAHHSSKKQHNYTSSMKRRTANAGLDPSILNEFLQKNGDFIFPFLQNQDMSSSSEEDNSRASQKIQDLNVVVKQQEISEDDHDGIKIEELPNSKQVALENFLKNIKKSNESNSNRHSRNSARSQSKKSQKRHLKNPAADLDFRKDCVKYRSNDSLSCSSEELDVALDVGSLLNSSFSGISMGKPHSRNSKTSCDVGIQANPFELVPSYGEDELQQAMRLLNAASRQRTEAANEDFGGTELQGLLGHSHRHQREPTFMSESDKLKMLLLPSK

Each binder was assayed against T1, full-length Drosophila Smurf (two-hybrid bait) (Drosophila) (assay: two-hybrid; AH109 yeast; bait vector pGBKT7, prey vector pACT2; growth on permissive (-Leu/-Trp) and restrictive (-Ade/-His/-Leu/-Trp) medium).

| binding | Binder |
| --- | --- |
| binds | B1 |
| binds | B2 |
| binds | B3 |

The binders below were run against T2, Flag-tagged Smurf (Drosophila) (assay: co-IP; transfected S2 cells, lysates after 48 h; anti-Flag M2 affinity gel or anti-Myc affinity gel; NaCl adjusted to 500 mM, washes with 500 mM NaCl; Western blot; for Smo with Smurf (Figure 5C,D) cells treated with Hh medium for 12 h).

| binding | Binder |
| --- | --- |
| binds | B4 |
| binds | B5 |
| binds | B6 |
